{
  "source": "PubChem BioAssay AID540256",
  "about": "(National Center for Advancing Translational Sciences (NCATS), 2011)",
  "note": "Hit rate of the full screen: of about 300,000 compounds, about 3,700 (1.2%) were called active. This list was built around the results that the source calls inconclusive (neither active nor inactive); the mix of calls is not that of the screen. The call rests on the fitted dose curve; tested in HEK293 cells. Where the call is inconclusive, the potency comes from a doubtful curve fit. Potency means the concentration at half of the fitted maximal effect.",
  "data": [
    {"assay": "qHTS for Inhibitors of binding or entry into cells for Lassa Virus; further: nearly all actives have a fitted effect of over 50% in size", "conditions": "Lassa virus pseudotype entry inhibition, cell reporter; series mostly up to 37.9 µM", "values": [
      {"smiles": "CCOC(=O)C(NCc1ccc(F)cc1)(NC(=O)c1ccccc1)C(F)(F)F", "note": "(centres undefined)", "Potency": "inconclusive: 29.1 µM [inhibitor, single point]"},
      {"smiles": "CC(C)(C)OC(=O)N1CCC[C@H]1C(=O)NCc1ccc(Cl)cc1Cl", "Potency": "inconclusive: 35.5 µM [inhibitor, single point]"},
      {"smiles": "N#C/C(=C\\c1ccc(Br)cc1)c1nc(-c2cc3cc(Br)ccc3oc2=O)cs1", "Potency": "inactive"},
      {"smiles": "Cc1ccccc1C(=O)c1c[nH]c(C(=O)N2CCN(c3ccccc3F)CC2)c1", "Potency": "inconclusive: 17.8 µM [inhibitor, single point]"},
      {"smiles": "Cc1ccc(C(=O)c2cn(Cc3ccccc3F)c3cc4c(cc3c2=O)OCO4)cc1", "Potency": "inactive"},
      {"smiles": "Cc1cn2c(=O)cc(COC(=O)c3cccc(NC(=O)COc4ccc(Cl)cc4)c3)nc2s1", "Potency": "inconclusive: 10 µM [activator, partial curve, poor fit]"},
      {"smiles": "COc1cccc(-c2cc(C(=O)O)no2)c1", "Potency": "inactive"},
      {"smiles": "Cc1cc(=O)oc(C)c1C(=O)OCC(=O)c1ccc(Br)cc1", "Potency": "inconclusive: 1 µM [activator, full curve, poor fit]"},
      {"smiles": "Cc1sc2ncn(CC(=O)NCCCOC(C)C)c(=O)c2c1S(=O)(=O)N1CCN(c2ncccn2)CC1", "Potency": "inactive"},
      {"smiles": "O=C(Nc1ccc(Br)cc1)c1ccc(Br)c(S(=O)(=O)N2CCCCC2)c1", "Potency": "inconclusive: 1.78 µM [inhibitor, partial curve, poor fit]"},
      {"smiles": "CCOC(=O)c1ccc(Oc2coc3cc(O)ccc3c2=O)cc1", "Potency": "inactive"},
      {"smiles": "COc1ccc(-c2nc3ccccn3c2C=O)cc1", "Potency": "inconclusive: 35.5 µM [inhibitor, single point]"},
      {"smiles": "CCn1cc(/C=N\\NC(=O)c2csc3ccccc23)c(C)n1", "Potency": "inconclusive: 1.26 µM [activator, single point]"},
      {"smiles": "Cc1ccc(N2C(=O)c3ccccc3NC2C(C)Cc2ccc3c(c2)OCO3)cc1", "note": "(centres undefined)", "Potency": "inactive"},
      {"smiles": "CCc1ccc(NC(=S)NC2CC3CCC(C2)N3Cc2ccco2)cc1", "note": "(centres undefined)", "Potency": "inconclusive: 29.1 µM [inhibitor, single point]"},
      {"smiles": "CC1CCCC(C)N1CC(O)COc1c(F)cc(Br)cc1F", "note": "(centres undefined)", "Potency": "inactive"},
      {"smiles": "Cc1cc(C)nc(Nc2n[nH]c(C)n2)n1", "Potency": "inactive"},
      {"smiles": "CCOC(=O)C1CCCN(C(=O)CSc2ccc(NC(C)=O)cc2)C1", "note": "(centres undefined)", "Potency": "inconclusive: 7.94 µM [inhibitor, partial curve, poor fit]"},
      {"smiles": "O=C(CN1CCN(C(=O)C2CC2)CC1)Nc1ccc(Cl)cc1F", "Potency": "inconclusive: 2.82 µM [inhibitor, full curve, poor fit]"},
      {"smiles": "O=C(CSc1nnc(-c2cccnc2)o1)Nc1ccccc1Br", "Potency": "inactive"},
      {"smiles": "C=CCNC(=O)/C(C#N)=C/c1c(N2CCN(c3cccc(Cl)c3)CC2)nc2c(C)cccn2c1=O", "Potency": "inactive"},
      {"smiles": "CC(=O)c1cnc2c(-c3ccc(Cl)cc3)cnn2c1C", "Potency": "inconclusive: 1 µM [activator, partial curve, poor fit]"},
      {"smiles": "COc1cccc(NC(=O)C(=O)NCC(c2ccc3c(c2)OCO3)N2CCOCC2)c1", "note": "(centres undefined)", "Potency": "inactive"},
      {"smiles": "COC(=O)c1cc(OC)c(OC)cc1NC(=O)c1c(-c2ccccc2)noc1C", "Potency": "inconclusive: 1.83 µM [inhibitor, full curve, poor fit]"},
      {"smiles": "CCCCCCn1c(SCC(C)C)nc2c1c(=O)[nH]c(=O)n2C", "Potency": "inactive"},
      {"smiles": "Cn1c(-c2ccccc2)c(O)c(=O)c2ccccc21", "Potency": "inconclusive: 5.96 µM [inhibitor, single point]"},
      {"smiles": "CCC(OCC(O)CN1CCN(CCN2C(=O)c3cccc4cccc(c34)C2=O)CC1)c1ccccc1", "note": "(centres undefined)", "Potency": "inconclusive: 29.1 µM [inhibitor, single point]"},
      {"smiles": "CCOc1ccc(NC(=O)CC2C(=O)N(c3ccc(OCC)cc3)C(=S)N2C2CC2)cc1", "note": "(centres undefined)", "Potency": "inconclusive: 35.5 µM [inhibitor, partial curve, poor fit]"},
      {"smiles": "COc1ccc(CCN(C)Cc2ccc(OCc3ccccc3)c(OC)c2)cc1OC", "Potency": "inactive"},
      {"smiles": "Nc1c(C(=O)Nc2ccccc2)sc2ncc([N+](=O)[O-])cc12", "Potency": "inactive"},
      {"smiles": "COc1ccc(CN(C(=O)CSc2nnc(-c3c[nH]c4ccccc34)o2)c2ccc(F)cc2)cc1OC", "Potency": "active: 7.08 µM"},
      {"smiles": "CN(C1CCCCC1)S(=O)(=O)c1ccc(NC(=O)C2CCCCC2)cc1", "Potency": "inconclusive: 23.1 µM [inhibitor, single point]"},
      {"smiles": "COc1ccccc1N1CCN(Cc2cc(=O)c(OCC(=O)NC3CCCC3)co2)CC1", "Potency": "inconclusive: 8.91 µM [activator, partial curve, poor fit]"},
      {"smiles": "CCCC(=O)Nc1cnc(NC(=O)c2cccc(F)c2)cc1C", "Potency": "inconclusive: 2.24 µM [activator, partial curve, poor fit]"},
      {"smiles": "O=C1NC(c2ccc(-c3ccccc3[N+](=O)[O-])o2)C(C(=O)c2ccc(Cl)cc2)C(O)(C(F)(F)F)N1", "note": "(centres undefined)", "Potency": "inconclusive: 25.1 µM [inhibitor, partial curve, poor fit]"},
      {"smiles": "O=C(C1CC1)N(CCN(C(=O)C1CC1)c1ccccc1)c1ccccc1", "Potency": "inactive"},
      {"smiles": "CN1CCN(C(=O)c2cccc(NS(=O)(=O)c3ccc(Br)cc3)c2)CC1", "Potency": "inconclusive: 1 µM [inhibitor, single point]"},
      {"smiles": "CCCCN(CCCC)Cc1ccc(N)cc1", "Potency": "inconclusive: 0.092 µM [activator, full curve, poor fit]"},
      {"smiles": "COc1cc(CC(=O)OCC(=O)c2ccc(F)cc2)cc(OC)c1OC", "Potency": "inconclusive: 1.12 µM [inhibitor, single point]"},
      {"smiles": "COc1ccc(-c2cnnc(N/N=C/c3ccc(O)c(O)c3)n2)cc1", "Potency": "active: 4.61 µM"},
      {"smiles": "O=C(NCc1ccccc1)C1CCCN(C(=O)c2ccc(F)cc2)C1", "note": "(centres undefined)", "Potency": "inactive"},
      {"smiles": "Cn1c(SCC(=O)N/N=C/c2ccc([N+](=O)[O-])s2)nnc1-c1ccccc1", "Potency": "inconclusive: 17.8 µM [inhibitor, partial curve, poor fit]"},
      {"smiles": "COCCN(C(=O)COC(=O)c1ccccc1Nc1ccccc1)c1c(N)n(Cc2ccccc2)c(=O)[nH]c1=O", "Potency": "inconclusive: 12.6 µM [inhibitor, partial curve, poor fit]"},
      {"smiles": "CCC(NC(=O)c1[nH]c(C)c(C(C)=O)c1C)c1ccc(Br)cc1", "note": "(centres undefined)", "Potency": "inconclusive: 8.91 µM [inhibitor, partial curve, poor fit]"}
    ]}
  ]
}
